From article PMC4928909 come the findings set out here.

Protein sequences, listed by entry. Tags and fused reporters are not part of them. Lines headed by an entry give the natural chain unless they say otherwise; changes in a name come on top.
UniProt P06778: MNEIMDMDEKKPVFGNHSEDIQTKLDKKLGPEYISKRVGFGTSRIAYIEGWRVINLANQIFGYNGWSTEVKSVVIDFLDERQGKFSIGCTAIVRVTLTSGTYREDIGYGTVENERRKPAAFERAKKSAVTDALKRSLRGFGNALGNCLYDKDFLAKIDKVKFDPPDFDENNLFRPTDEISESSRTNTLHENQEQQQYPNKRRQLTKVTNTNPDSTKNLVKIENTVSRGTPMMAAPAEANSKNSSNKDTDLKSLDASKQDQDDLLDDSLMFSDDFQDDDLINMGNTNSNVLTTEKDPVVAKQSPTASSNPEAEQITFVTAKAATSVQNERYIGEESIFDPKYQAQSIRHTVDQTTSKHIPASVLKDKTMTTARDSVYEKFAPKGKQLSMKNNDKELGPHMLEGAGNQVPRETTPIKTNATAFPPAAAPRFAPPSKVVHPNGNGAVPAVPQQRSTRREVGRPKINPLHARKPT

Weaker means in comparison with the reference protein, sequence or condition of that experiment.

In the data set the target is yRad52NM (Saccharomyces cerevisiae) (UniProt P06778). The data set is described as follows: EMSA. The conditions noted are these: 3 mM Mg acetate; 30 mM Tris-acetate pH 7.5, 3 mM Mg acetate, 20 mM NaCl, 37 C, 15 min, 100 nM labeled ssDNA; 6% PAGE in TBE; recombinant protein; residues …; protein details: C-terminal His6; label: 5'-32P; single-stranded DNA. On the technique in general: A gel shift assay detects complexes by their altered migration in electrophoresis.

In the case of “TGGTTGAGTACTCACCAGTCACAGAAAAGCATCTTACGGATGGCATGACAGTAAGAGAATTATGCAGTGC [TSO252]”, the binding result is listed as “binds more weakly”.
